Taken from: PubChem BioAssay AID652259 (Drosophila RNAi Screening Center, 2013)

- Assay: 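Knock-downs that push a Wingless-driven reporter up or down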 (primary screen)
- Cell system: Drosophila clone 8 imaginal disc epithelial cells
- Reagents: long dsRNA against Drosophila genes
- Conditions: pathway stimulated by co-transfected Wingless expression plasmid
- Detection: 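Firefly luciferase from a tcf-site Wingless reporter, measured alongside co-transfected Renilla luciferase that tracks transfection; pathway stimulated by a Wingless plasmid; the firefly-to-Renilla ratio is not deposited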
- Scale: firefly reporter light: higher = more Wg reporter light, before normalisation; Renilla control light: higher = more transfected or surviving cells
- Hit rule: 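a knock-down is a candidate when at least two out of four statistical tests show it departing from its plate mean; one test alone signals a weak candidate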
- Meaning of the calls: active = candidate regulator (raises or lowers reporter); inactive = not a candidate
In all, the deposit lists about 22,000 reagents; shown is an unselected part of those that have a named target and a result. Of all reagents, 233 (1.1%) are marked active. 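Light values are raw, unnormalised plate reads; the ratio scores behind the reporter calls were not deposited.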 Unmarked entries are inactive. A plus sign joins genes that one reagent is predicted to hit. Not given: the amount of reagent, the time to read-out, the dose of the treatment.

CG6553 (GeneID 36537) [DRSC07002] — firefly reporter light, replicate 1: 8292; Renilla control light, replicate 1: 2519
Pli (GeneID 42821) [DRSC16792] — firefly reporter light, replicate 1: 4368; firefly reporter light, replicate 2: 6173; Renilla control light, replicate 1: 2026; Renilla control light, replicate 2: 1837
Pepck1 (GeneID 37131) [DRSC07505] — firefly reporter light, replicate 1: 8786; Renilla control light, replicate 1: 3355
DCTN2-p50 (GeneID 44086) [DRSC07132] — firefly reporter light, replicate 1: 14289; Renilla control light, replicate 1: 2781
CG14042 + SP555 [DRSC02367] — firefly reporter light, replicate 1: 2852; firefly reporter light, replicate 2: 5856; Renilla control light, replicate 1: 636; Renilla control light, replicate 2: 1240
CG14042 + SP555 [DRSC03428] — firefly reporter light, replicate 1: 3904; firefly reporter light, replicate 2: 6486; Renilla control light, replicate 1: 1094; Renilla control light, replicate 2: 2550
Gfat2 (GeneID 43373) [DRSC14598] — firefly reporter light, replicate 1: 2651; firefly reporter light, replicate 2: 4493; Renilla control light, replicate 1: 787; Renilla control light, replicate 2: 880
CG15820 (GeneID 38277) [DRSC08480] — firefly reporter light, replicate 1: 14250; Renilla control light, replicate 1: 3568
Su(Tpl) (GeneID 40171) [DRSC10954] — firefly reporter light, replicate 1: 7600; Renilla control light, replicate 1: 2681
Rme-8 (GeneID 35939) [DRSC07054] — firefly reporter light, replicate 1: 13765; Renilla control light, replicate 1: 2032
Tusp (GeneID 43317) [DRSC15838] — firefly reporter light, replicate 1: 6806; Renilla control light, replicate 1: 2836
CG15870 (GeneID 36446) [DRSC06588] — firefly reporter light, replicate 1: 8209; Renilla control light, replicate 1: 3100
CadN (GeneID 35070) [DRSC03286] — firefly reporter light, replicate 1: 3810; firefly reporter light, replicate 2: 9668; Renilla control light, replicate 1: 1193; Renilla control light, replicate 2: 4544
Hasp (GeneID 35238) [DRSC02022] — firefly reporter light, replicate 1: 14464; Renilla control light, replicate 1: 4148
ssp6 (GeneID 38694) [DRSC08791] — firefly reporter light, replicate 1: 3831; Renilla control light, replicate 1: 1413
ssp6 (GeneID 38694) [DRSC10677] — firefly reporter light, replicate 1: 1472; firefly reporter light, replicate 2: 8996; Renilla control light, replicate 1: 953; Renilla control light, replicate 2: 2410
pb (GeneID 40826) [DRSC12409] — firefly reporter light, replicate 1: 2564; Renilla control light, replicate 1: 1557
pb (GeneID 40826) [DRSC12629] — reporter change call, replicate 1: Wg reporter activity raised (active); firefly reporter light, replicate 1: 25349; Renilla control light, replicate 1: 2364
CG2202 (GeneID 32014) [DRSC19841] — firefly reporter light, replicate 1: 5113; firefly reporter light, replicate 2: 12123; Renilla control light, replicate 1: 1821; Renilla control light, replicate 2: 4357
Ttc30 (GeneID 34702) [DRSC02818] — firefly reporter light, replicate 1: 3857; firefly reporter light, replicate 2: 9137; Renilla control light, replicate 1: 1888; Renilla control light, replicate 2: 3752
hog (GeneID 318105) [DRSC19057] — firefly reporter light, replicate 1: 2930; Renilla control light, replicate 1: 1089
mxt (GeneID 33686) [DRSC00551] — firefly reporter light, replicate 1: 18368; Renilla control light, replicate 1: 2917
CG4282 (GeneID 36825) [DRSC06865] — firefly reporter light, replicate 1: 11099; Renilla control light, replicate 1: 4164
CG12182 (GeneID 38324) [DRSC08142] — firefly reporter light, replicate 1: 14570; Renilla control light, replicate 1: 4096
CG11997 (GeneID 41093) [DRSC14464] — firefly reporter light, replicate 1: 14097; Renilla control light, replicate 1: 4016

Reagents listed so far with an active call, once more:
pb (GeneID 40826) [DRSC12629] — reporter change call, replicate 1: Wg reporter activity raised (active); firefly reporter light, replicate 1: 25349; Renilla control light, replicate 1: 2364
